Data taken from PubChem BioAssay AID2685 (National Center for Advancing Translational Sciences (NCATS), 2010).
The list shows a part of the results. Shown are side measurements of this screen, not its main read-out; they come without a call. Compounds called inactive in the main read-out are mostly missing here. Words in brackets tell the shape of the fitted curve; partial curves, single points and poor fits give uncertain potencies.

Test: qHTS Assay for Lipid Storage Modulators in Drosophila S3 Cells;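 as to cell number change: cells counted by Cell Tracker Red CMTPX staining in the red channel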
Conditions: BODIPY lipid droplet fluorescence, 18-24 h; for cell number change: measured here: cell count max response, cells fed with added oleic acid
Summary of the method: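 Laser-scanning cytometry quantifies lipid droplet accumulation (500–530 nm total intensity; droplet/cell object ratio) in oleic acid-fed (400 uM added) Drosophila S3 cells treated with a concentration series. 20 uM Triacsin C defined 100% inhibition.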

[1] = measured here: lipid fluorescence (Fed channel) AC50, cells fed with added oleic acid
[2] = measured here: cell number channel AC50, cells fed with added oleic acid

Structure (SMILES) | AC50 [1] | cell number change | AC50 [2]
O=C1CCCc2nc(N3CCCCC3)sc21 | 0.058 µM [falling, full curve, poor fit] |  | 
CC(=O)c1ccccc1C(=O)N1CCCC(N2CCN(Cc3ccc4c(c3)OCO4)CC2)C1 (centres undefined) |  | 35.6% | 
Clc1ccccc1CSc1ncccn1 | 29.1 µM [falling, single point] | 6.56% | 
Cc1c(OCC(=O)N2CCC(C(N)=O)CC2)ccc2c1oc(=O)c1ccccc12 | 1.03 µM [falling, full curve] | 2.94% | 
Oc1ccc(C(=S)N2CCN(Cc3ccccc3)CC2)cc1 | 1.3 µM [falling, full curve, poor fit] | -9.87% | 
CCCCCCc1nnc(NC(=O)OCC)s1 | 29.1 µM [rising, single point] | 11% | 
CC(C)Sc1nnc([C@H](C)NC(=O)OC(C)(C)C)o1 | 0.259 µM [falling, full curve, poor fit] |  | 
CCOc1ccc(CCNC(=O)C2CCN(C(=O)N(C)C)CC2)cc1OCC | 29.1 µM [rising, single point] | 14.8% | 
CCOCCCN(C(=O)CCC(=O)Nc1cc(C)on1)C(C(=O)NC(C)(C)C)c1ccccc1Cl (centres undefined) |  | -8.26% | 
COc1cc(S(=O)(=O)Nc2ccccc2C)ccc1Cl | 29.1 µM [falling, single point] | -68.4% | 32.6 µM [falling, single point]
COc1cc(OC)cc(C(=O)Nc2ccccc2S(=O)(=O)N2CCCC2OC(C)=O)c1 (centres undefined) | 10.3 µM [falling, single point] | -1.89% | 
Cc1ccc(-c2nnc(NC(=O)CCS(=O)(=O)c3ccc(F)cc3)o2)c(C)c1 |  | 24.5% | 
CCn1cc(C(=O)NCCCOC(C)C)c(=O)c2cc(S(=O)(=O)N3CCC(C)CC3)ccc21 | 5.8 µM [falling, single point] | 10.5% | 
CCCN(CCC)Cc1c(C(=O)N/N=C/C(C)=C\c2ccco2)nnn1-c1nonc1N | 1.64 µM [falling, full curve, poor fit] |  | 
O=C(COc1ncnc2ccccc12)NCc1ccc2c(c1)OCO2 |  | 49.4% | 29.1 µM [rising, single point]
CC(=O)Nc1cccc2c1Cc1ccccc1-2 | 29.1 µM [rising, single point] | -2.47% | 
CCC(CO)Nc1ncnc2onc(-c3ccc(F)cc3)c12 (centres undefined) |  | -3.52% | 
O=C1CCNc2c(Cl)cccc21 | 3.66 µM [falling, single point] |  | 
Cc1sc2ncnc(NCC(O)c3ccc([N+](=O)[O-])cc3)c2c1C (centres undefined) | 18.4 µM [falling, partial curve] | 1.3% | 
Cn1c(SCCC#N)nnc1-c1ccc(F)cc1 | 0.731 µM [falling, full curve] | -46.1% | 0.461 µM [falling, full curve]
O=C(c1ccccc1)c1nn(-c2ccccc2)c(=O)cc1C(F)(F)F | 36.6 µM [rising, partial curve, poor fit] | 30.1% | 0.146 µM [rising, full curve, poor fit]

Entries listed so far that have an aryl thioether with sulfur outside any ring (3):
Structure (SMILES) | AC50 [1] | cell number change | AC50 [2]
Clc1ccccc1CSc1ncccn1 | 29.1 µM [falling, single point] | 6.56% | 
CC(C)Sc1nnc([C@H](C)NC(=O)OC(C)(C)C)o1 | 0.259 µM [falling, full curve, poor fit] |  | 
Cn1c(SCCC#N)nnc1-c1ccc(F)cc1 | 0.731 µM [falling, full curve] | -46.1% | 0.461 µM [falling, full curve]

(cont.)

Structure (SMILES) | AC50 [1] | cell number change | AC50 [2]
C/C(=N\NC(=O)COc1ccc(C(C)(C)C)cc1)c1ccc(N2CCOCC2)cc1 | 0.461 µM [rising, full curve] | -14.4% | 2.06 µM [rising, partial curve]
CCCC(=O)Nc1c2c(nn1-c1ccccc1)CSC2 | 18.4 µM [rising, partial curve] | 3.95% | 
O=C(NCC(=O)N1CCCCC1)c1sc2ccccc2c1Cl |  | -13.7% | 
c1ccc(COc2ccccc2CNC23CC4CC(CC(C4)C2)C3)cc1 | 29.1 µM [falling, single point] | -22.5% | 
CCC(C)NC(=O)c1ccc(C(=O)c2ccccc2)cc1 (centres undefined) | 4.11 µM [falling, full curve] | -46.8% | 0.651 µM [falling, full curve]
C=CCNC(=O)COc1coc(CN2CCN(C(=O)c3ccco3)CC2)cc1=O | 20.6 µM [rising, single point] | 1.36% | 
Cc1occc1-c1nc(-c2ccccn2)no1 | 2.06 µM [rising, full curve] | -4.8% | 
O=C1C2CCCN2C(c2ccco2)N1c1ccc(F)cc1 (centres undefined) |  | -22.1% | 
O=C(O)c1ccccc1C(=O)OCCCc1ccncc1 | 29.1 µM [rising, single point] | 13.7% | 
CCCCC(=O)NC(=S)Nc1cccc(NC(=O)CC)c1 | 0.116 µM [falling, full curve, poor fit] | -16.4% | 
N#CC1=C2SCCN2C(=O)C(C#N)C12CCCCC2 (centres undefined) | 7.31 µM [rising, single point] | -14.5% | 
COC(=O)CSc1nccc(C)n1 | 0.731 µM [falling, full curve] | -12.3% | 
Cc1ccc2c(=O)c(CN3CCCCCC3)c(C)[nH]c2c1C | 3.66 µM [rising, full curve, poor fit] | -10% | 
O=C(O)c1ccc(CS(=O)c2cccc(C(F)(F)F)c2)o1 (centres undefined) | 16.4 µM [falling, single point] | -30.6% | 16.4 µM [falling, single point]
CC(=O)O[C@H]1CC[C@]2(C)[C@H]3CC=C4[C@@H]5[C@@H](C)[C@H](C)CC[C@]5(C(=O)O)CC[C@@]4(C)[C@]3(C)CC[C@H]2C1(C)C | 6.51 µM [falling, partial curve, poor fit] | 21.1% | 
Cc1ccc(CNC(=O)COc2ccc(S(=O)(=O)N3CCOCC3)cc2)cc1 | 29.1 µM [rising, partial curve, poor fit] | 3.74% | 
CC(C)NC(=O)NC(=O)COC(=O)C1(C)CC1(Cl)Cl (centres undefined) |  | 37.4% | 
COc1cccc(NC(=O)c2cnc(SCC(=O)NCc3ccc4c(c3)OCO4)n(C)c2=O)c1 | 0.411 µM [rising, full curve] | 32.9% | 0.206 µM [rising, full curve]
CCn1cc(CN2CCCC(CNC(=O)COc3ccccc3OC)C2)c(C)n1 (centres undefined) | 6.51 µM [falling, single point] | 15.6% | 
Cc1cc(=O)oc2cc(NC(=O)c3ccc(OC(F)F)cc3)ccc12 |  | -1.32% | 
O=C(c1cc(-c2ccco2)on1)N1CCc2ccccc2C1 | 1.84 µM [falling, full curve] | -33.9% | 11.6 µM [falling, partial curve]

Structure (SMILES) | AC50 [1] | cell number change | AC50 [2]
COc1ccccc1CNC(=O)COC(=O)c1cc(-c2ccco2)nc2ccccc12 | 0.517 µM [rising, single point] |  | 
COCC(=O)N1CCC(Oc2ccc(C(=O)NC(C)c3nccs3)cc2)CC1 (centres undefined) |  | 20.2% | 0.651 µM [rising, full curve, poor fit]
O=C(OCc1ccc([N+](=O)[O-])cc1)c1ccccn1 | 0.112 µM [falling, full curve, poor fit] | -11% | 0.112 µM [falling, full curve, poor fit]
COC(=O)c1ccc(CSc2nc3ccccc3c(=O)n2Cc2ccco2)o1 | 29.1 µM [rising, single point] | 118% | 
CCC(=O)N1N=C(c2c(O)n(C)c(=O)n(C)c2=O)CC1c1ccccc1 (centres undefined) | 6.51 µM [falling, single point] | -6.78% | 6.51 µM [falling, single point]
COc1ccc(Cl)cc1NC(=O)NCc1ccc2c(c1)OCO2 |  | 4.86% | 
CCOC(=O)CS(=O)(=O)c1ccc(O)cc1 |  | 8.25% | 
CCC(=O)NC1=C(NC(C)c2ccccc2)C(=O)c2ccccc2C1=O (centres undefined) |  | -53.2% | 16.4 µM [falling, single point]
N#Cc1c2n(cnc1=O)CCCCC2 |  | -76.9% | 8.2 µM [falling, partial curve]
Cc1ccccc1OCCC(=O)Nc1ccc(N2CCOCC2)cc1N1CCOCC1 |  | 175% | 9.2 µM [rising, partial curve]
CC(=O)c1ccc(NC(=S)NC(NC(=O)c2ccco2)C(Cl)(Cl)Cl)cc1 (centres undefined) | 1.64 µM [rising, partial curve, poor fit] | 7.73% | 
Cc1ccccc1S(=O)(=O)Cc1ccc(C(=O)NCc2ccc(F)cc2)o1 |  | -0.0319% | 6.51 µM [falling, single point]
COc1cccc(NC(=O)C2C(c3ccccc3)C2(Cl)Cl)c1 (centres undefined) |  | 9.12% | 
O=C(CN1CCN(c2cccc(C(F)(F)F)c2)CC1)N(C1CCCC1)C1CCS(=O)(=O)C1 (centres undefined) | 4.61 µM [falling, full curve, poor fit] | -15.5% | 
CC1(C)CC(=O)c2cnc(NC(=O)C3CCCC3)nc2C1 | 0.366 µM [falling, full curve, poor fit] | -21.5% | 2.59 µM [falling, partial curve]
CCN1C(=O)CC(N2CCN(C(c3ccccc3)c3ccccc3)CC2)C1=O (centres undefined) |  | 1.65% | 
C/C(=N\NC(=O)C(C)Sc1ccccc1)c1ccc([N+](=O)[O-])cc1 (centres undefined) | 0.259 µM [falling, full curve] | -3.92% | 
COc1ccc(OC)c(Nc2nc(NCCO)c3ccccc3n2)c1 | 0.651 µM [falling, single point] | -11.9% | 
O=C(Nc1cccc(C(F)(F)F)c1)c1ccc2nc(-c3ccco3)c(-c3ccco3)nc2c1 | 0.58 µM [rising, single point] | -6.35% | 
CN1CCN(S(=O)(=O)c2cccc(C(=O)N(C)Cc3cccs3)c2)CC1 | 0.0326 µM [falling, full curve, poor fit] | 0.933% | 0.82 µM [falling, single point]
